Read-outs that look alike come from different tables or passages of the source. These are yes or no findings as the source states them, for the method shown. In cells and extracts the contact can be indirect. Some binding calls cover weakened binding; strength is not graded here. For part of these data: Where a sequence is shown, tags or fusion partners need not be part of it.
Columns and labels:
HA-RAB18 [1] = biological target: HA-RAB18 (UniProt Q9NP72); assay: co-IP
HA-RAB18 [2] = biological target: HA-RAB18 (UniProt Q9NP72); assay: co-IP; remark: listed apart in the source

The chains behind the UniProt entries cited, without tags or fusion partners.
UniProt Q9NP72: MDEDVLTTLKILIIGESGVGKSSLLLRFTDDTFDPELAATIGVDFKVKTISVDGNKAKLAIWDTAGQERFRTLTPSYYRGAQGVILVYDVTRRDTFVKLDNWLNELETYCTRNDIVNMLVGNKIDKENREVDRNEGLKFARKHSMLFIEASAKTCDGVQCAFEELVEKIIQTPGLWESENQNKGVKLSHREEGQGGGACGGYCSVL
UniProt P32019: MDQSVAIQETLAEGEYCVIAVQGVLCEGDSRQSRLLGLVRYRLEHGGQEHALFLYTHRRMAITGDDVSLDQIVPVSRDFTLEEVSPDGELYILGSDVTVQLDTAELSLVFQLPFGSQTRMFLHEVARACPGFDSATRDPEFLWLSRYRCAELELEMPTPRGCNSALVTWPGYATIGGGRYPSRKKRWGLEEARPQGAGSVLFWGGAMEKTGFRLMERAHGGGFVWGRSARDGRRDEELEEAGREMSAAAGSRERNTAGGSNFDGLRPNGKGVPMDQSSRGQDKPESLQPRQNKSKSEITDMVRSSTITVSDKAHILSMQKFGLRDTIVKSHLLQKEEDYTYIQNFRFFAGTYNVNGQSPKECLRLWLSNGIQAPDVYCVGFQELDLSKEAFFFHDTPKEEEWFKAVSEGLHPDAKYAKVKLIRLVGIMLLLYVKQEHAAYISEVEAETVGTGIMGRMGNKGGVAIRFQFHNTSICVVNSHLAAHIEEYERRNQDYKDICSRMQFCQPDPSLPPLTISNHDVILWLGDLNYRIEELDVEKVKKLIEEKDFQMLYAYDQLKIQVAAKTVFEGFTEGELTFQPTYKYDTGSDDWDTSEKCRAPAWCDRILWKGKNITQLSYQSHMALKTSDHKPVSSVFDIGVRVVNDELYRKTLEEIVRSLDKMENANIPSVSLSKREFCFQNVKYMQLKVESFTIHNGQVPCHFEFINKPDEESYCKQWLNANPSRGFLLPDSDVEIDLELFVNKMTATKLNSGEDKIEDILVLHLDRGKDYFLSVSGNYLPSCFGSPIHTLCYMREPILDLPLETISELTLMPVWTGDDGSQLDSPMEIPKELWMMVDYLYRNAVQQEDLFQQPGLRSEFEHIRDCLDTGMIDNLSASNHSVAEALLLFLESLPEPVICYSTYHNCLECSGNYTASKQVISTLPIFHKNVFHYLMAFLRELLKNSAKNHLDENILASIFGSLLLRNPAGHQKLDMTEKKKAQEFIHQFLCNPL

**Q.** With “mCherry-INPP5B (from UniProt P32019 1-993)” as the molecule, how does the binding (HA-RAB18 [1]) read?
**A.** binds

B1: mEmerald-SEC22A (protein, UniProt Q96IW7 1-307)
chain: MSMILSASVIRVRDGLPLSASTDYEQSTGMQECRKYFKMLSRKLAQLPDRCTLKTGHYNINFISSLGVSYMMLCTENYPNVLAFSFLDELQKEFITTYNMMKTNTAVRPYCFIEFDNFIQRTKQRYNNPRSLSTKINLSDMQTEIKLRPPYQISMCELGSANGVTSAFSVDCKGAGKISSAHQRLEPATLSGIVGFILSLLCGALNLIRGFHAIESLLQSDGDDFNYIIAFFLGTAACLYQCYLLVYYTGWRNVKSFLTFGLICLCNMYLYELRNLWQLFFHVTVGAFVTLQIWLRQAQGKAPDYDV
**Q.** With B1 as the molecule, how does the binding (HA-RAB18 [2]) read?
**A.** binds

B2: TMCO4-EGFP (protein, UniProt Q5TGY1 1-634)
chain: MAMWNRPCQRLPQQPLVAEPTAEGEPHLPTGRELTEANRFAYAALCGISLSQLFPEPEHSSFCTEFMAGLVQWLELSEAVLPTMTAFASGLGGEGADVFVQILLKDPILKDDPTVITQDLLSFSLKDGHYDARARVLVCHMTSLLQVPLEELDVLEEMFLESLKEIKEEESEMAEASRKKKENRRKWKRYLLIGLATVGGGTVIGVTGGLAAPLVAAGAATIIGSAGAAALGSAAGIAIMTSLFGAAGAGLTGYKMKKRVGAIEEFTFLPLTEGRQLHITIAVTGWLASGKYRTFSAPWAALAHSREQYCLAWEAKYLMELGNALETILSGLANMVAQEALKYTVLSGIVAALTWPASLLSVANVIDNPWGVCLHRSAEVGKHLAHILLSRQQGRRPVTLIGFSLGARVIYFCLQEMAQEKDCQGIIEDVILLGAPVEGEAKHWEPFRKVVSGRIINGYCRGDWLLSFVYRTSSVQLRVAGLQPVLLQDRRVENVDLTSVVSGHLDYAKQMDAILKAVGIRTKPGWDEKGLLLAPGCLPSEEPRQAAAAASSGETPHQVGQTQGPISGDTSKLAMSTDPSQAQVPVGLDQSEGASLPAAASPERPPICSHGMDPNPLGCPDCACKTQGPSTGLD
**Q.** B2 was tested. Which binding (HA-RAB18 [2]) did it give?
**A.** binds
